In PubChem BioAssay AID2685 (National Center for Advancing Translational Sciences (NCATS), 2010):
Screen size: about 320,000 compounds; about 2,100 (0.66%) were called active. This list was built around the results that the source calls inconclusive (neither active nor inactive); the mix of calls is not that of the screen. Calls follow the shape of the dose curve; as a rule, active = well fitted inhibition curve with a large enough effect in the signal ratio, with a control signal flat (not every such curve was filed as active); inconclusive = small, poorly fitted or top-dose-only effect, or effect the other way, or a change in a side signal; inactive = flat fitted curve, though single readings scatter; the % refers to the signal ratio. Potencies of inconclusive entries are doubtful fits and often do not repeat.
% is scaled to controls: 0 for no effect and ±100 for the full control effect; potency is read from the fitted curve at half-maximal effect.

Assay: qHTS Assay for Lipid Storage Modulators in Drosophila S3 Cells
Conditions: BODIPY lipid droplet fluorescence, 18-24 h, cells fed with added oleic acid; lipid storage change, negative = inhibition: at 46.1 µM (top of the series) unless noted
Summary of the method: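 Laser-scanning cytometry quantifies lipid droplet accumulation (500–530 nm total intensity; droplet/cell object ratio) in oleic acid-fed (400 uM added) Drosophila S3 cells treated with a concentration series. 20 uM Triacsin C defined 100% inhibition.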
With Oc1c(C(Nc2cccc(C(F)(F)F)c2)c2cccnc2)ccc2cccnc12 (stereo not drawn) the lipid storage change, negative = inhibition was inconclusive: -17%. In the case of COc1cccc(N2CCN(CC(=O)C34CC5CC(CC(C5)C3)C4)CC2)c1, the Potency is reported as inconclusive: 7.31 µM [falling, partial curve, poor fit]. In the case of COC(=O)C(=O)C/C(=N/Nc1ncnc2ccccc12)c1ccc(Cl)cc1, the Potency is reported as inconclusive: 0.082 µM [falling, full curve, poor fit]. In the case of COc1ccc(-c2[nH]c(-c3ccccc3)nc2SCC(=O)NC2CCCC2)cc1, the Potency is reported as inconclusive: 1.46 µM [activator, full curve, poor fit]. With CCSc1nc(O)c(CC)c(=O)n1C(C)CC (stereo not drawn) the lipid storage change, negative = inhibition was inconclusive: -0.708%. In the case of COC(=O)C(C)(C(=O)OC)c1ccc([N+](=O)[O-])cn1, the lipid storage change, negative = inhibition is reported as inconclusive: -2.72%. For O=C1/C(=C/c2cccs2)Cc2ccccc21, the lipid storage change, negative = inhibition was “inactive”. With Cn1c(=Nc2ccc(N3CCOCC3)cc2)ccc2ccccc21 the lipid storage change, negative = inhibition was inconclusive: 7.71%. In the case of c1ccc(CN=C2NN=C(c3ccccc3)CS2)cc1, the Potency is reported as inconclusive: 2.31 µM [activator, partial curve]. For CCOc1ccccc1C(=O)OCC(=O)Nc1ncc(C(F)(F)F)cc1Cl, the lipid storage change, negative = inhibition was inconclusive: -12.3%. In the case of CCN1CC(CNC(=O)c2ccc3nc(Cc4cccc(Cl)c4)oc3c2)CC1=O (stereo not drawn), the lipid storage change, negative = inhibition is reported as inconclusive: -53.1%. With O=C(COc1ccccc1)Nc1nc(-c2ccncc2)cs1 the lipid storage change, negative = inhibition was inconclusive: -10.6%. With COc1cccc(NC(=O)c2ccc(CN3CCc4ccccc4C3)cc2)c1 the lipid storage change, negative = inhibition was “inactive”. For COc1cccc(NC(=O)c2ccccc2C(F)(F)F)c1, the lipid storage change, negative = inhibition was inconclusive: -4.69%. In the case of COCc1[nH][nH]c(=O)c1C=Nc1ccc(Cl)cc1, the Potency is reported as inconclusive: 0.651 µM [falling, single point]. For COC(=O)c1ccccc1S(=O)(=O)N1CCC(c2nc3ccccc3o2)CC1, the Potency was inconclusive: 5.8 µM [activator, full curve]. In the case of CCOc1ccc(NC(=O)CN(C)C(=O)c2ccc(C)c(S(=O)(=O)N3CCCCC3)c2)cc1OCC, the lipid storage change, negative = inhibition is reported as inconclusive: -100%. For CCCn1c(C)cc(C(=O)COC(=O)c2ccc(Cl)c(S(=O)(=O)N3CCCC3)c2)c1C, the lipid storage change, negative = inhibition was inconclusive: 4%. For C[C@H](NS(=O)(=O)c1ccccc1F)C(=O)OCC(=O)N1CCc2ccccc21, the Potency was inconclusive: 1.64 µM [falling, partial curve]. For CCOC(=O)c1sc2nc(C)nc(NCc3ccccc3OC)c2c1C, the lipid storage change, negative = inhibition was inconclusive: 20.9%. With COc1cccc(CNC(=O)C2CCN(Cc3cnn(-c4ccccc4)c3-n3cccc3)CC2)c1 the lipid storage change, negative = inhibition was inconclusive: -5.12%. With COc1ccc(N2CCN(CC(=O)c3c(C)n(C)c4ccc(OC)cc34)CC2)cc1 the lipid storage change, negative = inhibition was inconclusive: 27%. In the case of CN(C)C(CNC(=S)Nc1cccc(Cl)c1)c1cccnc1 (stereo not drawn), the lipid storage change, negative = inhibition is reported as “inactive”. In the case of CCOc1cc(N2CCOCC2)c(OCC)cc1NC(=O)COC(=O)c1ccc(Cl)cc1N, the Potency is reported as inconclusive: 0.58 µM [activator, single point]. For O=C(N/N=C\c1ccccn1)C1COc2cc3ccccc3cc2O1 (stereo not drawn), the lipid storage change, negative = inhibition was inconclusive: -24.8%. With CCC1Nc2ncnc(N3CCOCC3)c2N(Cc2ccc(C)cc2)C1=O (stereo not drawn) the lipid storage change, negative = inhibition was inconclusive: 54.4%. With O=C(NCc1cccs1)C(=O)NCC1OCCCN1S(=O)(=O)c1cc(F)ccc1F (stereo not drawn) the lipid storage change, negative = inhibition was inconclusive: 27.8%. In the case of N/C(=N\OC(=O)c1ccc(Br)cc1)c1ccncc1, the lipid storage change, negative = inhibition is reported as inconclusive: 0.667%. With C[C@@H]1CN(CCCn2c3ccccc3c3ccccc32)C[C@H](C)N1 the lipid storage change, negative = inhibition was inconclusive: 7.73%. With O=C(N/N=C/c1ccc(O)c([N+](=O)[O-])c1)c1ccncc1 the Potency was inconclusive: 0.651 µM [activator, partial curve, poor fit]. In the case of Cc1ccc(CN2CCN(Cc3ccc(O)cc3)CC2CCO)o1 (stereo not drawn), the Potency is reported as inconclusive: 0.651 µM [falling, single point]. With Cc1ccc(C)c(Cn2c(=O)n(-c3ccc(CC(=O)NCc4ccco4)cc3)c(=O)c3sccc32)c1 the lipid storage change, negative = inhibition was inconclusive: 0.175%. In the case of CCOc1ccc(NC(=O)COC(=O)CSCC(=O)Nc2ccc(C)cc2C)cc1, the Potency is reported as inconclusive: 10.3 µM [rising, partial curve]. With CCOC(=O)C(C)Sc1nc2c(cnn2-c2ccc(F)cc2)c(=O)[nH]1 (stereo not drawn) the lipid storage change, negative = inhibition was inconclusive: 14.6%. With CCCCC(=O)Nc1cc(Cl)ccc1C(=O)O the lipid storage change, negative = inhibition was inconclusive: 142%. For O=C(CSc1ncn[nH]1)Nc1ccc2c(c1)CCC2, the lipid storage change, negative = inhibition was inconclusive: 2.63%. For Cc1ccc(C)c(CSc2ncccc2C(=O)O)c1, the lipid storage change, negative = inhibition was inconclusive: 4.55%. For O=C(CC(c1ccccc1)c1ccccc1)NCCO, the lipid storage change, negative = inhibition was inconclusive: -10.3%. With CC(=O)c1c(C)[nH]c(C(=O)Nc2cccnc2)c1C the lipid storage change, negative = inhibition was inconclusive: 12.6%. In the case of Cc1cc(C)c2nc(SCC(=O)Nc3cc(C)on3)c(C)cc2c1, the Potency is reported as inconclusive: 6.51 µM [activator, single point]. For CC(C)Cc1nc2oc3c(=O)[nH]cnc3c2c2c1CCC2, the lipid storage change, negative = inhibition was inconclusive: -24.4%. With N/C(=N\c1nc2c(c(=O)[nH]1)CCC2)Nc1cccc(Cl)c1 the lipid storage change, negative = inhibition was inconclusive: 10.4%. For O=C(CN1C(=O)c2ccccc2S1(=O)=O)c1ccccc1Cl, the Potency was inconclusive: 23.1 µM [falling, partial curve, poor fit]. For CC(=O)N1N=C(c2ccccc2O)OC1(C)CC(=O)Nc1ccccc1 (stereo not drawn), the lipid storage change, negative = inhibition was inconclusive: 27.9%. With COc1ccc(OC)c(NC(=O)CCN2C(=O)c3ccccc3C2=O)c1 the lipid storage change, negative = inhibition was “inactive”. For O=C(OCCN1CCCC1=O)c1cncc(Br)c1, the lipid storage change, negative = inhibition was inconclusive: -20%. In the case of CCc1nc(-c2ccc(C)nc2OC)no1, the lipid storage change, negative = inhibition is reported as inconclusive: 35.7%. In the case of O=C(/C=C/c1ccccc1)NC(=S)Nc1ccc(CN2CCOCC2)cc1, the Potency is reported as inconclusive: 20.6 µM [activator, single point]. For C=CCSc1nnc(CCc2ccccc2)n1N, the lipid storage change, negative = inhibition was inconclusive: 1.47%. For CCN(CC)S(=O)(=O)c1ccc(N2CCCC2)c(NC(=O)c2c(-c3ccccc3)noc2C)c1, the lipid storage change, negative = inhibition was inconclusive: 113%. For Cc1cccc(NC(=O)C2CC(=O)n3cnnc3S2)c1 (stereo not drawn), the Potency was active: 13 µM. In the case of N#CC1=C(SCC(=O)Nc2cccc3cccnc23)NC(=O)C(C#N)C12CCCCC2 (stereo not drawn), the Potency is reported as inconclusive: 29.1 µM [activator, single point]. With O=C(NCC(c1ccco1)N1CCCCC1)c1ccc(NS(=O)(=O)c2ccc(F)cc2)cc1 (stereo not drawn) the Potency was inconclusive: 25.9 µM [falling, single point]. For CC(C)(C)CC(=O)Nc1ccccc1N1CCN(c2ccc(F)cc2)CC1, the lipid storage change, negative = inhibition was inconclusive: -70.2%. With Cc1cccc(OCCN2C(=O)c3ccccc3C2=O)c1 the lipid storage change, negative = inhibition was inconclusive: 11.4%. With CCN(CC)C(=O)C1=C(C)Nc2nnnn2C1c1cccnc1 (stereo not drawn) the Potency was inconclusive: 0.731 µM [falling, full curve, poor fit]. In the case of COc1cc(C2C(C(=O)c3cccs3)=C(O)C(=O)N2c2cc(C)on2)ccc1O (stereo not drawn), the Potency is reported as inconclusive: 2.59 µM [falling, full curve]. For CC(=O)NC(c1ccccc1)c1c(O)ccc2ccccc12 (stereo not drawn), the lipid storage change, negative = inhibition was “inactive”. In the case of CO/N=C/CC(=O)c1ccc(OC)cc1, the Potency is reported as inconclusive: 4.61 µM [falling, single point]. For CN1C(=O)NC(c2ccc(O)cc2)C2=C1CN(c1ccccc1)C2=O (stereo not drawn), the lipid storage change, negative = inhibition was inconclusive: 59.4%. In the case of COC(=O)[C@H](CCSC)NC(=O)Nc1ccc(C)c(C)c1, the Potency is reported as active: 5.17 µM. With CN1CC2([N+](=O)[O-])CC=C(OCCO)C([N+](=O)[O-])(C1)C2 (stereo not drawn) the Potency was inconclusive: 7.31 µM [falling, partial curve, poor fit]. In the case of O=C(O)C1CCN(S(=O)(=O)N2CCOCC2)CC1, the lipid storage change, negative = inhibition is reported as inconclusive: -12%. In the case of Cc1cccc(NC(=O)c2cc(=O)n(Cc3ccccc3)c(=O)[nH]2)c1, the lipid storage change, negative = inhibition is reported as inconclusive: -26.5%. For CCN(CC)CCN1C(=O)c2ccccc2NC1c1ccc(F)cc1 (stereo not drawn), the lipid storage change, negative = inhibition was inconclusive: 18.2%. In the case of Cc1ccc(OCCN(C)C(=O)c2cc(COc3ccc(F)cc3F)on2)cc1, the lipid storage change, negative = inhibition is reported as inconclusive: -14.7%. For COc1cccc(-c2cc(C(=O)N3CC4(C)CC3CC(C)(C)C4)no2)c1 (stereo not drawn), the Potency was inconclusive: 29.1 µM [cytotoxic, single point]. With Cc1ccc(-c2cc(C(=O)NCC3CCCO3)no2)cc1 (stereo not drawn) the Potency was inconclusive: 11.6 µM [activator, partial curve, poor fit]. For CCOC(=O)c1c(C)[nH]c(C)c1S(=O)(=O)NCCN1CCN(c2cc(Cl)ccc2C)CC1, the Potency was inconclusive: 23.1 µM [falling, single point]. For Cc1ccc(-n2ccnc(SCC(=O)NC3CCCC3)c2=O)cc1F, the Potency was inconclusive: 2.06 µM [falling, single point]. In the case of COc1ccc(NC(=O)C2C3CCC(O3)C2C(=O)O)cc1OC (stereo not drawn), the Potency is reported as inconclusive: 4.61 µM [falling, single point]. For Cc1ccc(SCCC(=O)NC(C)(C)C)cc1, the lipid storage change, negative = inhibition was inconclusive: 57.7%. In the case of CCOC(=O)c1sc(Nc2nc3c(OC)cccc3s2)cc1C, the Potency is reported as inconclusive: 29.1 µM [falling, single point]. For Cc1nc(-c2ccc(S(=O)(=O)N3CCOCC3)cc2)cs1, the lipid storage change, negative = inhibition was “inactive”. In the case of Cc1ccc(-c2noc(CCC(=O)Nc3ccccc3C)n2)cc1, the Potency is reported as inconclusive: 29.1 µM [activator, single point]. With N#Cc1ccccc1S(=O)(=O)N1CCN(C(=O)C2CCC2)CC1 the lipid storage change, negative = inhibition was “inactive”. In the case of CCOc1cccc(-c2nnc3sc(C4CCCCC4)nn23)c1, the Potency is reported as inconclusive: 9.2 µM [activator, partial curve]. In the case of CC(C)(O)C#Cc1ccc(C(=O)N2CCC(CCC(=O)NC3CC3)CC2)cc1, the lipid storage change, negative = inhibition is reported as inconclusive: 82.7%.
